Measured values: the supplement of paper PMC10849652
The list shows a part of the results.

Amino acid sequences for entries named in this document (tags omitted). A change or cut given only in a name is not applied to a line headed by its entry.
UniProt Q9NVH0: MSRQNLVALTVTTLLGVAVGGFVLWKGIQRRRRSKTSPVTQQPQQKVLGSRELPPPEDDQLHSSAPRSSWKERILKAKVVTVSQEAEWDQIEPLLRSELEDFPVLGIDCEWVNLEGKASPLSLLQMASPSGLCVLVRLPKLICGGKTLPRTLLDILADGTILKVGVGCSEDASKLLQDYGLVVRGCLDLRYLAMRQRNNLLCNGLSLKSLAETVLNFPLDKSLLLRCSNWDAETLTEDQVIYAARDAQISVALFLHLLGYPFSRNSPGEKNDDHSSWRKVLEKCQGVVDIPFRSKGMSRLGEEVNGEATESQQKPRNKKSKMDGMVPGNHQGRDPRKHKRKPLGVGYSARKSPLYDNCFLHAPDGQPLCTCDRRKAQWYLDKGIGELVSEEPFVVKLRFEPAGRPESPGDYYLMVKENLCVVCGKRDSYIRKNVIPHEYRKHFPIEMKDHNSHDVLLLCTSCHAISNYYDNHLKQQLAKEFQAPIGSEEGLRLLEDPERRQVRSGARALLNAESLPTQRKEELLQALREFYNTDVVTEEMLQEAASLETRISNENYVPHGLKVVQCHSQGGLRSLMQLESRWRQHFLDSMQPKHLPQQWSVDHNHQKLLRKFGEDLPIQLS
UniProt Q8IV48: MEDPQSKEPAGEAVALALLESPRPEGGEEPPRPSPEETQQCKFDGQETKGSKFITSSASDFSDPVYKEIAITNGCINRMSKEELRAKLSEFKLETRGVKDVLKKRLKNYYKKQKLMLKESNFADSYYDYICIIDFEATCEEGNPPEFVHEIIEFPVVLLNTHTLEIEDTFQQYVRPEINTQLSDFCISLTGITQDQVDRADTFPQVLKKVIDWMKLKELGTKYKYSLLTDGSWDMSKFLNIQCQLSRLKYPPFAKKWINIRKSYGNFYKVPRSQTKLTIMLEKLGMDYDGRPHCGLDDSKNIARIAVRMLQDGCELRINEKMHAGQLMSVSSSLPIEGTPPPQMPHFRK
UniProt Q9UPT5: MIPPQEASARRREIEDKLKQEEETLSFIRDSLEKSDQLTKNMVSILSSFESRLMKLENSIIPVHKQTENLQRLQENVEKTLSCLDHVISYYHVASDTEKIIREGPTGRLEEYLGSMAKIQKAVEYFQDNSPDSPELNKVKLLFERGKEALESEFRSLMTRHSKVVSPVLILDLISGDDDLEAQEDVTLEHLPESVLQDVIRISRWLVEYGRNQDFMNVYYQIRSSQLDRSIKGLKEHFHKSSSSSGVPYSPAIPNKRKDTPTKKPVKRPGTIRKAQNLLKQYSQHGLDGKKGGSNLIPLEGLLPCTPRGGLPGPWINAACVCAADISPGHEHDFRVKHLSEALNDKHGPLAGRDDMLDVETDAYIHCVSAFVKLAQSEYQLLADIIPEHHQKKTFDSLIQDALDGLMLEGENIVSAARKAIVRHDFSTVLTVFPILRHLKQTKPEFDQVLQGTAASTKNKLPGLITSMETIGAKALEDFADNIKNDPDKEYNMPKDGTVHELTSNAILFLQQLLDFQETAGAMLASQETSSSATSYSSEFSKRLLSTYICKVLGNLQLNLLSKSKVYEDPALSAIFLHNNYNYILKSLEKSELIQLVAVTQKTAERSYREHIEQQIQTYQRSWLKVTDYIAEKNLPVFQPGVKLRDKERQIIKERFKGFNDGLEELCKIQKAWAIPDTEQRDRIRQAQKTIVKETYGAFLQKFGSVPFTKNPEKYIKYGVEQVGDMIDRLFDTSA
UniProt Q13216, whole entry, looked up: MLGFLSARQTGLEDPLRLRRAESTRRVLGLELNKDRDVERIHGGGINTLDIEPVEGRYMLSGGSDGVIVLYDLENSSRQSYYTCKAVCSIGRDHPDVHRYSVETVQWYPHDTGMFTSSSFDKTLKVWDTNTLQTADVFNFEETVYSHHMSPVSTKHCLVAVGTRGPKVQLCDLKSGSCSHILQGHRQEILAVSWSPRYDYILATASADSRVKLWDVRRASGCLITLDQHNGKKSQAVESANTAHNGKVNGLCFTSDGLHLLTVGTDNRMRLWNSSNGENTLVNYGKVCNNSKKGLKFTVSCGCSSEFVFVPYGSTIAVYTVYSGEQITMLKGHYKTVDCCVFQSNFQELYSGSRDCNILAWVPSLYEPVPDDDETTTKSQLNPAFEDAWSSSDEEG
UniProt Q8IWE2: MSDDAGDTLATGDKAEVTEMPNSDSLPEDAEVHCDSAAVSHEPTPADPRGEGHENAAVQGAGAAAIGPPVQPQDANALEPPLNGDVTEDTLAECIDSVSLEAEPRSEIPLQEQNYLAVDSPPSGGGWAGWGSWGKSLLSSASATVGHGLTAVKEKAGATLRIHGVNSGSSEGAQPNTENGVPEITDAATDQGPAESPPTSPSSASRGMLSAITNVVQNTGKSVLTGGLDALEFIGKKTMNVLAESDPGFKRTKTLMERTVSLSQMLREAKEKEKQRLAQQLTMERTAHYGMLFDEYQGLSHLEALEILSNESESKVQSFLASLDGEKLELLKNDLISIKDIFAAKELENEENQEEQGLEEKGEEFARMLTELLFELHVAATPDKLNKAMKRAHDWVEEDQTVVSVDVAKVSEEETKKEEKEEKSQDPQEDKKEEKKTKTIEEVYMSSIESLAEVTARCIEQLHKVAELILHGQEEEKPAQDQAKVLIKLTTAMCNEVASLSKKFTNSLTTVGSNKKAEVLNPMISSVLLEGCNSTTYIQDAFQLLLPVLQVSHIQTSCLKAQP
UniProt O75460: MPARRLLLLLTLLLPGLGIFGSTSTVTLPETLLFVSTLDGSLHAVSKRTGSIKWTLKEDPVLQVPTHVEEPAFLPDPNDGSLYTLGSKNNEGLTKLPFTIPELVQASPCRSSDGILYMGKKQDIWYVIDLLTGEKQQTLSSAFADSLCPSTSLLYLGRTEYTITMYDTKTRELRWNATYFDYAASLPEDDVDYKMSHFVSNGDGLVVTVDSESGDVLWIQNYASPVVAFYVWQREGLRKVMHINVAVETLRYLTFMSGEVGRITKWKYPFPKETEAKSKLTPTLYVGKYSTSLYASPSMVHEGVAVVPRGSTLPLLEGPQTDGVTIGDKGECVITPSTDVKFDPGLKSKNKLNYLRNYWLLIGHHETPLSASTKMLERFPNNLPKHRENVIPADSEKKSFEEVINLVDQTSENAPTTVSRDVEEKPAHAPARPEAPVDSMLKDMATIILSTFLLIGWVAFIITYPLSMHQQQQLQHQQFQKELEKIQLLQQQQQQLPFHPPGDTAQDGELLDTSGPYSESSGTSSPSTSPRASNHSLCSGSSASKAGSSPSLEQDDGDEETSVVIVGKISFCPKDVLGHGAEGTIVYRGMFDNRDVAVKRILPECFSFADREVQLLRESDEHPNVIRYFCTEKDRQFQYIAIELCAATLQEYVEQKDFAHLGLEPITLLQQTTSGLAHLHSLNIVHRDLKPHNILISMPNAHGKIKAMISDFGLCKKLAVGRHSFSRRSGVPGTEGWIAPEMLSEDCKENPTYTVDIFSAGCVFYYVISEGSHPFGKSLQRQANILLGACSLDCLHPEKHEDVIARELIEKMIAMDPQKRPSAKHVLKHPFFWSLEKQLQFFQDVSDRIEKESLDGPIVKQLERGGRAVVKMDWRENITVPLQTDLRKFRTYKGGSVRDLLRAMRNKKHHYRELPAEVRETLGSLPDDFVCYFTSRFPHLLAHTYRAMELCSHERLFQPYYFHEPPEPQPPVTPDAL
UniProt Q5VUB5: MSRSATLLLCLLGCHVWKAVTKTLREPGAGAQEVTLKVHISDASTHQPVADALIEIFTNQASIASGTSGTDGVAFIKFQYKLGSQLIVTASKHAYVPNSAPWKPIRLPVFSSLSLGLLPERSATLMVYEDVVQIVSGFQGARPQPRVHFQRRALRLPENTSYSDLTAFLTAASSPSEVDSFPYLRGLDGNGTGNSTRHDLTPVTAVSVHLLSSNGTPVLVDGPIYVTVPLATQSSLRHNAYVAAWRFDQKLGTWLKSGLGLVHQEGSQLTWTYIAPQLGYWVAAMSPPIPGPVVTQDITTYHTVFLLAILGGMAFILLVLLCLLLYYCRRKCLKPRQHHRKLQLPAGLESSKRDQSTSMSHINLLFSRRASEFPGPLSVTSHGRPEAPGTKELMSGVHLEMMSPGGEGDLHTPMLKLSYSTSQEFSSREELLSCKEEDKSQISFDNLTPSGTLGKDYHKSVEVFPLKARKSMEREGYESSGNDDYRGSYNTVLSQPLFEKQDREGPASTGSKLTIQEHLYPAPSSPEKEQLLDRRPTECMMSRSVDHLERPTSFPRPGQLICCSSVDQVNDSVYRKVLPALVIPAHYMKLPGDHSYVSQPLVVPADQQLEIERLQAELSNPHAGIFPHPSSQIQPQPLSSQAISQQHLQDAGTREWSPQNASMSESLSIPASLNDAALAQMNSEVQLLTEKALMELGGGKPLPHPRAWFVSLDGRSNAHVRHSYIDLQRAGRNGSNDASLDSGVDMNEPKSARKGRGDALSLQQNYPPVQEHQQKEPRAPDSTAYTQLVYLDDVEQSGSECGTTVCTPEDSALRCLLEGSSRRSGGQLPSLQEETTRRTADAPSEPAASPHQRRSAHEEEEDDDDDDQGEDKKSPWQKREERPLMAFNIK
UniProt Q92817: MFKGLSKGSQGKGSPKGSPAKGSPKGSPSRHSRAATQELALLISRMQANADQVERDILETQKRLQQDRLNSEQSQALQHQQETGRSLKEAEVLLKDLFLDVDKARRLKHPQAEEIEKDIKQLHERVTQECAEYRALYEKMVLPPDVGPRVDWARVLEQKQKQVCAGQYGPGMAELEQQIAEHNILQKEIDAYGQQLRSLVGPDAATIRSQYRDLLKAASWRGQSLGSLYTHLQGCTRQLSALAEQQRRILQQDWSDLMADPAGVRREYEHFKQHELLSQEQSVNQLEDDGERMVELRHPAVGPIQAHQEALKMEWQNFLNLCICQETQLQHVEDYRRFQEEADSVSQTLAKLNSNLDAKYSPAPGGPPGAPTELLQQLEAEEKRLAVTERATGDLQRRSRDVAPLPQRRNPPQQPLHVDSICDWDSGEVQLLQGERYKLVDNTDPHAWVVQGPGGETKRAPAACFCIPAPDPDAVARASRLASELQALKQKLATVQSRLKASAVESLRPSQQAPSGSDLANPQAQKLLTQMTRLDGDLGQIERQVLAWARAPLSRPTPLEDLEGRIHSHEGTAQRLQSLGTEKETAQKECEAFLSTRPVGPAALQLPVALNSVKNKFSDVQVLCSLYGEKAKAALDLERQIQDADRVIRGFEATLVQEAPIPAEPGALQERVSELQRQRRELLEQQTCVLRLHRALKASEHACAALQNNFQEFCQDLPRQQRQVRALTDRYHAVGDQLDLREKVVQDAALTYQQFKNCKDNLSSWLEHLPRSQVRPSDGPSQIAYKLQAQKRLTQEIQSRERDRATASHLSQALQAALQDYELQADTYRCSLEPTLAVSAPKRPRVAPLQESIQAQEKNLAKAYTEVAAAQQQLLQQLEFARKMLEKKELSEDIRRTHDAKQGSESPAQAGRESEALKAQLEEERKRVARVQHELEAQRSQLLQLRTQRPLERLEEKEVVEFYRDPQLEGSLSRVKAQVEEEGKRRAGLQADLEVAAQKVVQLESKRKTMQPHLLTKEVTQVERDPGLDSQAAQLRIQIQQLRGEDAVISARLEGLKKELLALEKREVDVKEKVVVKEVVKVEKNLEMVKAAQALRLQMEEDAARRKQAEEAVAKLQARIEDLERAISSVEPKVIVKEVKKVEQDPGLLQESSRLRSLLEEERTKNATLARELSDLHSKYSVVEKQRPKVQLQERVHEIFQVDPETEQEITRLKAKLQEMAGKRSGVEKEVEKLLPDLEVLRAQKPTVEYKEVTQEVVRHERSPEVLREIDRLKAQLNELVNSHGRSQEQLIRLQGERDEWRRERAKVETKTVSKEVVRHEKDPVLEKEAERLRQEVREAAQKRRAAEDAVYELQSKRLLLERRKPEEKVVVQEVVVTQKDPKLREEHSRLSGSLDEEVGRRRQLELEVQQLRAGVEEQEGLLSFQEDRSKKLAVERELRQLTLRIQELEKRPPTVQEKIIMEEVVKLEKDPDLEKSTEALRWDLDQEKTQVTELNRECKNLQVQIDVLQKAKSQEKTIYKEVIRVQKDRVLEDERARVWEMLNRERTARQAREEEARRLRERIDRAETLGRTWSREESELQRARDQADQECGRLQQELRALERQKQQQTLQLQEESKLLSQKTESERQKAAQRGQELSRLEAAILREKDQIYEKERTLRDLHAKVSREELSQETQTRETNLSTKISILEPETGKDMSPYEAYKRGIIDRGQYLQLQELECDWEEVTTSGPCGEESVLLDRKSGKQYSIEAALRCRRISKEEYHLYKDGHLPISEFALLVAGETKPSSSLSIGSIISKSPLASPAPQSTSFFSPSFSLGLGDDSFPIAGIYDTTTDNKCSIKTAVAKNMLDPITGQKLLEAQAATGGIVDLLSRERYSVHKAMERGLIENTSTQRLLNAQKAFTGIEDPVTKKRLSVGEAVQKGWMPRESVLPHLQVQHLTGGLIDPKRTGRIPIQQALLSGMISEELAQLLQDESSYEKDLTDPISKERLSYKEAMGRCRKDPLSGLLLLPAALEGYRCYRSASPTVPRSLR

How the values were obtained:
Experiment in all cases: log2 fold change, soluble protein after heating vs DMSO (PISA); higher = thermal stabilisation; K562 cells, 10 uM, 30 min; active = over 0.2 and 3.5 SD of the protein, either way, in both replicates (recomputed)
[1] = compound: CS(=O)(=O)c1ccc(-c2cnc(N)c(C(=O)Nc3ccccc3)n2)cc1
Summary of the method: (§1)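 K562 cells at 2×10^6 cells/mL were treated for 30 min with 10 μM compound, and aliquots were heated for 3 min over 48°C-58°C before pooling. Extraction used PBS with 0.5% NP-40 at 4°C, and soluble protein was the supernatant after 21,000xg for 90 min, measured by TMTpro 16plex LC-MS/MS with channel sums equalised. Thermal stability values, relative to control samples and from duplicates, are log2 fold changes.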

crizotinib = compound: C[C@@H](Oc1cc(-c2cnn(C3CCNCC3)c2)cnc1N)c1c(Cl)ccc(F)c1Cl [crizotinib]
Summary of the method: as §1

[2] = compound: C[C@@H]1COCCN1C2=NC(=NC(=C2)C3(CC3)S(=O)(=O)C)C4=C5C=CNC5=CC=C4
Summary of the method: as §1

[3] = compound: C[C@H](C1=CC=C(C=C1)C(=O)NC2=C3C=CNC3=NC=C2)N
Summary of the method: as §1

doramapimod = compound: Cc1ccc(-n2nc(C(C)(C)C)cc2NC(=O)Nc2ccc(OCCN3CCOCC3)c3ccccc23)cc1 [doramapimod]
Summary of the method: as §1

ispinesib = compound: Cc1ccc(C(=O)N(CCCN)[C@@H](c2nc3cc(Cl)ccc3c(=O)n2Cc2ccccc2)C(C)C)cc1 [ispinesib]
Summary of the method: as §1

[4] = compound: Cn1cc(-c2ccc3c(c2)CCN3C(=O)Cc2cccc(C(F)(F)F)c2)c2c(N)ncnc21
Summary of the method: as §1

[5] = compound: Cn1cc(-c2ccc3nnc(C(F)(F)c4ccc5ncccc5c4)n3n2)cn1
Summary of the method: as §1

tipifarnib = compound: Cn1cncc1[C@@](N)(c1ccc(Cl)cc1)c1ccc2c(c1)c(-c1cccc(Cl)c1)cc(=O)n2C [tipifarnib]
Summary of the method: as §1

duvelisib = compound: C[C@H](Nc1ncnc2nc[nH]c12)c1cc2cccc(Cl)c2c(=O)n1-c1ccccc1 [duvelisib]
Summary of the method: as §1

[6] = compound: Cc1cc(SCc2sc(-c3ccc(C(F)(F)F)cc3)nc2C)ccc1OCC(=O)O
Summary of the method: as §1

dasatinib = compound: Cc1nc(Nc2ncc(C(=O)Nc3c(C)cccc3Cl)s2)cc(N2CCN(CCO)CC2)n1 [dasatinib]
Summary of the method: as §1

gandotinib = compound: Cc1cc(Nc2cc(CN3CCOCC3)c3nc(C)c(Cc4ccc(Cl)cc4F)n3n2)n[nH]1 [gandotinib]
Summary of the method: as §1

tozasertib = compound: Cc1cc(Nc2cc(N3CCN(C)CC3)nc(Sc3ccc(NC(=O)C4CC4)cc3)n2)n[nH]1 [tozasertib]
Summary of the method: as §1

[7] = compound: Cc1cccc(CC(=O)N2CCc3c2ccc(-c2cn(C)c4ncnc(N)c24)c3F)n1
Summary of the method: as §1

mubritinib = compound: FC(F)(F)c1ccc(/C=C/c2nc(COc3ccc(CCCCn4ccnn4)cc3)co2)cc1 [mubritinib]
Summary of the method: as §1

bafetinib = compound: Cc1ccc(NC(=O)c2ccc(CN3CC[C@H](N(C)C)C3)c(C(F)(F)F)c2)cc1Nc1nccc(-c2cncnc2)n1 [bafetinib]
Summary of the method: as §1

nilotinib = compound: Cc1cn(-c2cc(NC(=O)c3ccc(C)c(Nc4nccc(-c5cccnc5)n4)c3)cc(C(F)(F)F)c2)cn1 [nilotinib]
Summary of the method: as §1

[8] = compound: Cc1nc(Nc2n[nH]c3c2CN(C(=O)N[C@H](CN(C)C)c2ccccc2)C3(C)C)c2sccc2n1
Summary of the method: as §1

[9] = compound: Cc1ncc(-c2ccnc(Nc3ccc(S(C)(=O)=O)cc3)n2)n1C(C)C
Summary of the method: as §1

| Target | log2 fold change [1] | log2 fold change (crizotinib) | log2 fold change [2] | log2 fold change [3] | log2 fold change (doramapimod) | log2 fold change (ispinesib) | log2 fold change [4] | log2 fold change [5] | log2 fold change (tipifarnib) | log2 fold change (duvelisib) | log2 fold change [6] | log2 fold change (dasatinib) | log2 fold change (gandotinib) | log2 fold change (tozasertib) | log2 fold change [7] | log2 fold change (mubritinib) | log2 fold change (bafetinib) | log2 fold change (nilotinib) | log2 fold change [8] | log2 fold change [9] |
| --- | --- | --- | --- | --- | --- | --- | --- | --- | --- | --- | --- | --- | --- | --- | --- | --- | --- | --- | --- | --- |
| EXD2 (UniProt Q9NVH0) | inactive: 0.071 | inactive: -0.031 | inactive: 0.023 | inactive: 0.51 | inactive: 0.122 | inactive: -0.289 | inactive: -0.069 | inactive: -0.202 | inactive: 0.003 | – | – | – | – | – | – | – | – | – | – | – |
| EPG5 (UniProt Q9HCE0) | inactive: 0.129 | – | inactive: 0.295 | – | – | inactive: 0.026 | – | inactive: -0.013 | – | inactive: 0.252 | inactive: 0.105 | inactive: -0.138 | – | – | – | – | – | – | – | – |
| ERI1 (UniProt Q8IV48) | – | inactive: 0.118 | inactive: 0.023 | inactive: 0.481 | inactive: 0.225 | inactive: -0.375 | inactive: -0.333 | inactive: -0.089 | – | inactive: -0.216 | inactive: 0.046 | inactive: 0.038 | inactive: 0.123 | inactive: -0.107 | inactive: -0.049 | inactive: 0.197 | – | – | – | – |
| ERH (UniProt P84090) | – | inactive: 0.181 | inactive: 0.137 | inactive: -0.306 | inactive: 0.075 | inactive: 0.175 | inactive: 0.107 | inactive: 0.104 | inactive: 0.021 | inactive: 0.006 | inactive: -0.068 | inactive: 0.097 | inactive: 0.16 | inactive: 0.044 | inactive: -0.068 | inactive: -0.043 | inactive: -0.085 | inactive: 0.085 | inactive: -0.184 | inactive: -0.039 |
| FAM172A (UniProt Q8WUF8) | inactive: 0.204 | – | inactive: 0.046 | inactive: -0.005 | – | – | inactive: 0.139 | – | – | – | – | – | inactive: 0 | – | inactive: -0.087 | inactive: -0.053 | inactive: -0.02 | inactive: -0.082 | inactive: 0.042 | inactive: -0.119 |
| EXOC7 (UniProt Q9UPT5) | inactive: -0.062 | inactive: -0.25 | inactive: -0.028 | inactive: 0.034 | inactive: -0.029 | active: -0.346 | inactive: 0.002 | inactive: 0 | inactive: -0.089 | – | inactive: 0.05 | inactive: -0.234 | inactive: -0.122 | – | inactive: 0.014 | inactive: -0.011 | inactive: -0.026 | inactive: -0.046 | inactive: -0.139 | inactive: -0.035 |
| EPS8L2 isoform 3 (UniProt Q9H6S3) | inactive: -0.074 | – | inactive: -0.067 | – | – | inactive: 0.099 | – | inactive: 0.017 | – | inactive: -0.239 | inactive: -0.075 | inactive: 0.262 | – | inactive: 0.137 | – | – | – | – | – | – |
| ERCC8 (UniProt Q13216) | inactive: 0.086 | inactive: -0.078 | – | inactive: 0.127 | inactive: 0.051 | inactive: 0.047 | inactive: -0.034 | inactive: 0.041 | inactive: 0.231 | inactive: 0.211 | inactive: -0.037 | inactive: 0.014 | inactive: 0.123 | inactive: 0.091 | inactive: 0.017 | inactive: -0.004 | inactive: 0.088 | inactive: 0.055 | inactive: -0.016 | inactive: -0.103 |
| ESPL1 (UniProt Q14674) | inactive: 0.153 | inactive: -0.054 | inactive: -0.228 | inactive: 0.123 | inactive: -0.021 | inactive: -0.167 | inactive: -0.015 | inactive: 0.062 | inactive: -0.298 | – | – | – | inactive: -0.069 | – | inactive: -0.144 | inactive: 0.058 | inactive: -0.051 | inactive: 0.009 | inactive: -0.093 | inactive: -0.217 |
| EPHB4 (UniProt P54760) | inactive: 0.15 | – | – | – | – | inactive: -0.016 | – | inactive: -0.051 | inactive: -0.257 | – | – | – | – | – | – | inactive: 0.176 | – | – | – | – |
| FAM193B (UniProt Q96PV7) | inactive: -0.065 | inactive: -0.081 | inactive: -0.097 | inactive: 0.348 | inactive: -0.046 | – | inactive: 0.171 | – | inactive: -0.027 | – | inactive: -0.189 | inactive: -0.01 | – | – | – | – | inactive: 0.19 | – | – | – |
| FAM114A1 (UniProt Q8IWE2) | – | inactive: -0.073 | inactive: -0.119 | – | inactive: 0.037 | inactive: 0.036 | – | inactive: -0.368 | – | inactive: 0.104 | inactive: -0.069 | inactive: -0.06 | inactive: -0.072 | inactive: 0.102 | inactive: 0.308 | inactive: -0.133 | – | – | – | – |
| ERI3 (UniProt H0Y4B0) | inactive: 0.07 | – | inactive: -0.433 | – | – | – | – | – | – | – | – | – | – | – | – | – | inactive: -0.139 | – | – | – |
| FAM117B (UniProt Q6P1L5) | – | inactive: 0.563 | inactive: 0.007 | inactive: -0.021 | inactive: 0.21 | inactive: -0.057 | inactive: -0.029 | inactive: 0.072 | – | – | inactive: 0.257 | inactive: 0.207 | inactive: -0.164 | – | inactive: 0.01 | – | – | – | – | – |
| FAHD2B (UniProt Q6P2I3) | – | inactive: 0.076 | inactive: 0.108 | inactive: -0.139 | inactive: -0.102 | inactive: 0.118 | inactive: -0.106 | inactive: -0.065 | inactive: -0.083 | inactive: 0.08 | inactive: -0.033 | inactive: 0.062 | – | – | – | inactive: -0.052 | inactive: -0.008 | inactive: 0.042 | inactive: 0.069 | inactive: -0.109 |
| ERN1 (UniProt O75460) | inactive: 0.257 | inactive: 0.134 | inactive: 0.092 | – | inactive: 0.082 | inactive: -0.082 | – | inactive: 0.01 | inactive: 0.012 | inactive: 0.148 | inactive: 0.079 | inactive: -0.057 | inactive: -0.096 | inactive: 0.017 | inactive: 0.133 | inactive: -0.147 | – | inactive: 0.053 | inactive: 0.045 | inactive: 0.253 |
| ESRRB isoform 1 (UniProt O95718) | – | inactive: 0.19 | – | inactive: -0.143 | inactive: -0.108 | – | inactive: -0.044 | – | – | inactive: 0.029 | inactive: 0.046 | inactive: -0.105 | – | – | – | – | inactive: 0.044 | – | – | – |
| FAM171A1 (UniProt Q5VUB5) | – | inactive: 0.073 | inactive: 0.136 | – | inactive: -0.052 | – | – | – | inactive: 0.085 | – | – | – | inactive: -0.22 | – | inactive: 0.146 | – | – | – | – | – |
| FAM118B (UniProt Q9BPY3) | inactive: 0.099 | inactive: -0.169 | inactive: -0.007 | inactive: 0.107 | inactive: -0.003 | inactive: 0.046 | inactive: 0.014 | inactive: 0.02 | inactive: -0.083 | – | – | – | inactive: -0.101 | – | inactive: 0.028 | inactive: 0.015 | inactive: -0.083 | inactive: -0.114 | inactive: -0.106 | inactive: 0.022 |
| EVPL (UniProt Q92817) | inactive: -0.015 | – | – | – | – | inactive: -0.181 | – | inactive: 0.02 | – | – | – | – | inactive: 0.431 | – | inactive: 0 | inactive: -0.142 | – | inactive: 0.18 | inactive: -0.05 | inactive: -0.191 |
